{
  "source": "patent US20050238733A1",
  "about": "“Topical anesthesia of the urinary bladder” (priority 2000, published 2005)",
  "key": {"[1]": {"details": "intravesical, cited from earlier work"}, "clinical": {"assay": "clinical", "details": "human, blood, other: intravesical (through transurethral urinary catheter)"}},
  "data": [
    {"compound": "CCN(CC)CC(=O)Nc1c(C)cccc1C", "note": "[lidocaine]", "values": [
      {"measurement": "absorption rate (blood levels) relative to that at pH 8.1", "setting": "anesthetized rabbits, intra-vesical, pH levels above and below 8.1", "value": 25, "unit": "%"},
      {"measurement": "absorption of lidocaine at the optimum bladder pH versus lower or higher pHs", "setting": "bladder, optimum pH", "value": "five times greater"},
      {"measurement": "plasma levels of lidocaine", "setting": "[1]; 400 mg lidocaine hydrochloride", "value": 0.12, "unit": "micrograms/ml"},
      {"measurement": "uptake from the bladder compared with intramuscular, subcutaneous and topical airway administration", "setting": "[1]", "value": "sixteen times less"},
      {"measurement": "concentration at 180 min", "setting": "clinical", "value": 400, "unit": "ng/mL"}
    ]}
  ]
}
